For at least one compound, name, drawing or mass did not settle the structure.
Tested on: FAT1 WT and FAT1 KO human SCC cells (A388)
Assay: Drug sensitivity assay (cell viability by FACS), FAT1 WT versus FAT1 KO cells
Type: cell-based
Details: cell viability at 48 h, serial dilution of inhibitor, 5% FBS medium
Experimental: For the drug sensitivity assay, cells have been seeded at a density of 4000 cells/well in a 96 well plate. […] 48 hours after the start of treatment, cells have been harvested by trypsinization, and quantified by counting the number of living cells by FACS. Living cells were selected by forward and side scatter and by Hoechst dye exclusion. Each data point is the result of at least three independent replicates; each of the replicates is evaluated using a technical duplicate. Drug response curves and IC50 values have been calculated using the Prism8 software.

**Q.** How did the “sensitivity of FAT1 KO cells as compared to FAT1 WT cells” value (“sensitivity … compared to FAT1 WT cells” below) turn out when `CN(C)C/C=C/C(=O)Nc1cc2c(Nc3ccc(F)c(Cl)c3)ncnc2cc1O[C@H]1CCOC1` [Afatinib] was run?
**A.** The value was “significantly more resistant”.

**Q.** For `Cc1nc(Nc2ncc(C(=O)Nc3c(C)cccc3Cl)s2)cc(N2CCN(CCO)CC2)n1` [Dasatinib], which “sensitivity … compared to FAT1 WT cells” value is on record?
**A.** The value was “significantly more sensitive”.

**Q.** How did the “sensitivity … compared to FAT1 WT cells” value turn out when `CN1CCN(CCOc2cc(OC3CCOCC3)c3c(Nc4c(Cl)ccc5c4OCO5)ncnc3c2)CC1` [Saracatinib] was run?
**A.** The value was “significantly more sensitive”.

**Q.** With `CC(=O)Nc1cccc(-n2c(=O)n(C3CC3)c(=O)c3c(Nc4ccc(I)cc4F)n(C)c(=O)c(C)c32)c1` [Trametinib] as the compound, how does the “sensitivity … compared to FAT1 WT cells” value read?
**A.** Its value is “significantly more resistant”.

Source: patent US20240026458A1, “Method for Determining Sensitivity to an Antineoplastic Agent” (UNIVERSITÉ LIBRE DE BRUXELLES, priority 2020, published 2024)
